Measurements reported in PubChem BioAssay AID1259308 (NCATS, 2017)
The deposit covers about 59,000 reagents; below is an unselected part. About 1,510 of all reagents (2.6%) were called active. 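Calls use total luciferase alone and ignore viability, so some active siRNAs may act by altering cell number.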 A number with no mark means an inactive call. The numbers tell different reagents against one gene apart.

Screen: 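Candidate targets for better recombinant protein yield in mammalian cells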 (primary screen)
Cell system: human HEK293 embryonic kidney cells stably expressing firefly luciferase (HEK-CMV-Luc2-Hygro)
Reagents: single siRNA against human genes, 0.8 pmol siRNA per well
Time to read-out: 72 h
Measurement: 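Luciferase light (ONE-Glo) measured on one replicate plate set and viability (CellTiter-Glo) on the other, scaled to a negative control siRNA, with robust z-scores and luciferase per cell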
Scale: total luciferase, z-score and total luciferase, % of control: higher = more reporter protein produced; luciferase per cell, z-score: higher = more reporter output per viable cell; viable cells, % of control: higher = more viable cells
Rule for the call: 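Active when the median/MAD z-score for overall luciferase is greater than 3; a gene was taken forward for validation with new siRNAs if at least two of its three siRNAs passed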
Meaning of the calls: active = raised luciferase; inactive = no rise

no.	gene	siRNA no.	total luciferase, z-score	total luciferase, % of control	luciferase per cell, z-score	viable cells, % of control
1	PMS2P3	1	-0.922	63.6	-1.2	97.5
2	PMS2P3	2	-0.707	67.8	-1.25	105
3	PMS2P3	3	-1.78	46.5	-2.24	93.8
4	IL17RD (interleukin 17 receptor D)	1	-0.922	63.6	-0.616	83.5
5	IL17RD (interleukin 17 receptor D)	2	-0.733	67.3	-0.507	85.9
6	IL17RD (interleukin 17 receptor D)	3	0.164	85.1	0.144	91.6
7	PHYHD1 (phytanoyl-CoA dioxygenase domain containing 1)	1	-0.0045	81.8	0.15	87.9
8	PHYHD1 (phytanoyl-CoA dioxygenase domain containing 1)	2	-0.248	76.9	0.304	79.4
9	PHYHD1 (phytanoyl-CoA dioxygenase domain containing 1)	3	1.28	107	1.7	76.7
10	TMEM252 (transmembrane protein 252)	1	2.27	127	1.53	94.9
11	TMEM252 (transmembrane protein 252)	2	0.674	95.3	1.21	77.5
12	TMEM252 (transmembrane protein 252)	3	1.42	110	0.308	114
13	UGCG (UDP-glucose ceramide glucosyltransferase)	1	-0.869	64.6	-0.512	82.6
14	UGCG (UDP-glucose ceramide glucosyltransferase)	2	-0.222	77.5	0.217	81.8
15	UGCG (UDP-glucose ceramide glucosyltransferase)	3	-0.0685	80.5	-0.784	111
16	ZNF366 (zinc finger protein 366)	1	-0.529	71.4	-0.0734	81.3
17	ZNF366 (zinc finger protein 366)	2	-0.557	70.8	-0.251	84.5
18	ZNF366 (zinc finger protein 366)	3	-0.821	65.6	-1.43	107
19	ZFY (zinc finger protein Y-linked)	1	0.911	100	0.514	97.6
20	ZFY (zinc finger protein Y-linked)	2	0.835	98.5	1.18	80.7
21	ZFY (zinc finger protein Y-linked)	3	-0.226	77.4	-0.376	95.5
22	C3orf70 (chromosome 3 open reading frame 70)	1	-0.964	62.7	-0.123	72.4
23	C3orf70 (chromosome 3 open reading frame 70)	2	-0.0332	81.2	2.79	43.5
24	C3orf70 (chromosome 3 open reading frame 70)	3	-0.116	79.6	0.0595	87.6
25	RNF34 (ring finger protein 34)	1	0.111	84.1	-0.109	96.7
26	RNF34 (ring finger protein 34)	2	1.62	114	1.37	88.9
27	RNF34 (ring finger protein 34)	3	0.307	88	-0.408	109
28	LOC727925 (retired record)	1	-1.14	59.2	-0.566	76.8
29	LOC727925 (retired record)	2	-0.928	63.4	-0.0549	71.9
30	LOC727925 (retired record)	3	-0.499	72	-0.441	90.3
31	LIPN (lipase family member N)	1	0.209	86	-0.298	104
32	LIPN (lipase family member N)	2	1.19	105	1.25	84.9
33	LIPN (lipase family member N)	3	0.72	96.2	0.517	93.8
34	ZCCHC3 (zinc finger CCHC-type containing 3)	1	-0.84	65.2	-0.475	82.5
35	ZCCHC3 (zinc finger CCHC-type containing 3)	2	0.123	84.3	-0.0141	94.6
36	ZCCHC3 (zinc finger CCHC-type containing 3)	3	0.136	84.6	-0.106	97.2
37	SERPINC1 (serpin family C member 1)	1	3.31 (active)	148	1.62	108
38	SERPINC1 (serpin family C member 1)	2	-0.614	69.7	-0.328	84.9
39	SERPINC1 (serpin family C member 1)	3	-0.422	73.5	-0.386	90.9
40	CMTM7 (CKLF like MARVEL transmembrane domain containing 7)	1	-0.171	78.5	-0.441	98.5
41	CMTM7 (CKLF like MARVEL transmembrane domain containing 7)	2	0.895	99.7	1.07	84
42	CMTM7 (CKLF like MARVEL transmembrane domain containing 7)	3	0.278	87.4	-0.226	104
43	PDK2 (pyruvate dehydrogenase kinase 2)	1	-0.506	71.8	0.302	74.1
44	PDK2 (pyruvate dehydrogenase kinase 2)	2	-1.34	55.3	-1.61	94.4
45	PDK2 (pyruvate dehydrogenase kinase 2)	3	-1.23	57.3	-1.1	85.7
46	IFI27L1 (interferon alpha inducible protein 27 like 1)	1	-0.406	73.8	-0.975	107
47	IFI27L1 (interferon alpha inducible protein 27 like 1)	2	3.2 (active)	145	2.42	85.9
48	IFI27L1 (interferon alpha inducible protein 27 like 1)	3	1.46	111	0.298	115
49	ESYT2 (extended synaptotagmin 2)	1	-0.271	76.5	-0.758	104
50	ESYT2 (extended synaptotagmin 2)	2	0.218	86.2	-0.103	99
51	ESYT2 (extended synaptotagmin 2)	3	0.883	99.4	1.27	79.5
52	FBXW4 (F-box and WD repeat domain containing 4)	1	-1.71	47.9	-0.996	69.6
53	FBXW4 (F-box and WD repeat domain containing 4)	2	-2.19	38.3	-0.413	47.7
54	FBXW4 (F-box and WD repeat domain containing 4)	3	1.52	112	1.4	86.6
55	QSER1 (glutamine and serine rich 1)	1	1.57	113	1.12	94
56	QSER1 (glutamine and serine rich 1)	2	0.52	92.2	-0.08	105
57	QSER1 (glutamine and serine rich 1)	3	0.679	95.4	-0.0103	107
